Results on 21 compounds are retold here after PubChem BioAssay AID206 (DTP/NCI, 2004).

For this test, the system named is nude mice, HT29 intrarenal xenograft, tumor weight T/C. Kind of test: NCI In Vivo Anticancer Drug Screen. Data for tumor model HT29;CX-1 Human Adenocarcinoma (MER+) (intrarenal inoculation) in NU/NU Swiss (nude) mice. Conditions: T/C endpoint: mean tumor weight change, higher T/C = larger tumour. The method, boiled down: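 T/C = treated-group value ÷ vehicle-group value, using tumor size or survival.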

Setting [1] is: dose: 1200.0 mg/kg/injection, schedule: Q04DX004 (sc), vehicle: Klucel (hydroxypropylcellulose) (HPC).
[2] abbreviates: dose: 2400.0 mg/kg/injection, schedule: Q04DX004 (sc), vehicle: Klucel (hydroxypropylcellulose) (HPC).

The list shows only some results of the screen, not a fair sample: it is rich in T/C values a quarter to a half above the control, in often repeated tests (any T/C) and in doses without a T/C. Further doses and runs are listed elsewhere. T/C: endpoint of the treated group in % of that of the vehicle group. Schedules are NCI's codes, read here as Q, the interval in days (D) or hours (H), X, the number of doses. Some T/C values carry the count of animals alive at the toxicity check (mostly the fifth day); where none is given, no animal had died by that day. Some entries were tested several times; the values are given in rising order. Some entries give survivors of the animals treated and no T/C: the source files T/C as zero there, which appears to mark a toxic dose or a test without result, not a measured value. Survivors were counted at the toxicity check, usually on the fifth day, unless a day is given; later deaths do not show. Starred links: 1 amine or outer side, 2 acyl side, 3 side chain; linkers in the order of their positions; H or OH if unused. Non-standard residues stand in square brackets, D forms with d. Residues, ends and D or L forms follow the SMILES beside them. *: point of attachment. X2 = CCC(=O)CC1CC(C)CC(C(=O)[*:2])N1[*:1]; X1 = CCCCCCCCC(C)C(=O)*; Aib = CC(C)(N)C(=O)O; X3 = CC(CN(C)CCO)N*

As for `CCCCCCCCC(C)C(=O)N1CCCC1C(=O)N1C(CC(=O)CC)CC(C)CC1C(=O)NC(C)C(=O)NC(C)(C)C(=O)NC(C)(C)C(=O)NC(C(=O)NC(C)C(=O)NC(C)(C)C(=O)NC(C)(C)C(=O)NC(C)CN(C)CCO)C(C)CC` (stereo unspecified) (X1-P[X2]A[Aib][Aib]IA[Aib][Aib]-X3; configuration not given here), the T/C is, setting by setting: (dose: 7.5 mg/kg/injection, schedule: Q04DX004 (sc), vehicle: Klucel (hydroxypropylcellulose) (HPC), evaluated on day 15) 50, 78 [5 of 6 alive on day 15], 96 % of control [4 of 6 alive on day 15]; (dose: 15.0 mg/kg/injection, schedule: Q04DX004 (sc), vehicle: Klucel (hydroxypropylcellulose) (HPC), evaluated on day 15) 17 % of control. Moreover, the survivor count is, setting by setting: (dose: 7.5 mg/kg/injection, schedule: Q04DX004 (sc), vehicle: Klucel (hydroxypropylcellulose) (HPC)) 2 of 6 on day 15; (dose: 15.0 mg/kg/injection, schedule: Q04DX004 (sc), vehicle: Klucel (hydroxypropylcellulose) (HPC)) 0 of 6 on day 15 and 2 of 6 on day 15; (dose: 30.0 mg/kg/injection, schedule: Q04DX004 (sc), vehicle: Klucel (hydroxypropylcellulose) (HPC)) 0 of 6 on day 15 and 3 of 6 on day 15; (dose: 60.0 mg/kg/injection, schedule: Q04DX004 (sc), vehicle: Klucel (hydroxypropylcellulose) (HPC)) 0 of 6 on day 15.
In the case of `CCOC(=O)[C@]1(Br)CC[C@@]1(Br)C(=O)OCC`, the T/C (dose: 200.0 mg/kg/injection, schedule: Q04DX004 (sc), vehicle: saline with Tween-80, evaluated on day 15) was 140 % of control.
On to `CC1=C(C)C(=O)O[C@@H]([C@](C)(O)[C@]2(O)CC[C@@]3(O)[C@@H]4C[C@H]5O[C@]56CC=CC(=O)[C@]6(C)[C@H]4CC[C@]23C)C1`, for which, where the note is “dose: 225.0 mg/kg/injection, schedule: Q04DX004 (sc), vehicle: suspension in saline, evaluated on day 15”, the T/C is 134 % of control.
Regarding `O=c1n(CC2CO2)c(=O)n(CC2CO2)n1CC1CO1` (stereo unspecified), the survivor count reads like this: (dose: 75.0 mg/kg/injection, schedule: Q04DX004 (sc), vehicle: suspension in saline) 1 of 6 on day 15; (dose: 150.0 mg/kg/injection, schedule: Q04DX004 (sc), vehicle: suspension in saline) 0 of 6 on day 15; (dose: 300.0 mg/kg/injection, schedule: Q04DX004 (sc), vehicle: suspension in saline) 0 of 6 on day 15.
Consider `N=c1nc2n(cc1F)[C@@H]1O[C@H](CO)[C@@H](O)[C@@H]1O2`, for which the survivor count (dose: 600.0 mg/kg/injection, schedule: Q04DX004 (sc), vehicle: suspension in saline) is reported as 3 of 6 on day 15 and the survivor count (dose: 2400.0 mg/kg/injection, schedule: Q04DX004 (sc), vehicle: suspension in saline) is 3 of 6 on day 15.
As for `CC[C@](O)(C(=O)O)c1cc2n(c(=O)c1CO)Cc1cc3ccccc3nc1-2`, the survivor count is 3 of 6 on day 15 (dose: 62.5 mg/kg/injection, schedule: Q04DX004 (sc), vehicle: saline); 0 of 6 on day 15 (dose: 125.0 mg/kg/injection, schedule: Q04DX004 (sc), vehicle: saline); 0 of 5 on day 15 and 0 of 6 on day 15 (dose: 250.0 mg/kg/injection, schedule: Q04DX004 (sc), vehicle: saline).
Take `Cc1ccc(S(=O)(=O)NC(=S)S)cc1`: where the note is “dose: 400.0 mg/kg/injection, schedule: Q01DX010 (sc), vehicle: saline with Tween-80, evaluated on day 11”, the T/C is 139 % of control. Also, the survivor count (dose: 800.0 mg/kg/injection, schedule: Q01DX010 (sc), vehicle: saline with Tween-80) was 0 of 3 on day 11.
As to `OCCCN1CCCCC1CO` (stereo unspecified), the survivor count (dose: 1800.0 mg/kg/injection, schedule: Q04DX004 (sc), vehicle: saline) was 2 of 6 on day 15.
As to `CCCCNC(C)C1(O)Cc2c(O)c3c(c(O)c2C(OC2CC(N)C(O)C(C)O2)C1)C(=O)c1c(OC)cccc1C3=O` (stereo unspecified), the survivor count by setting is: (dose: 200.0 mg/kg/injection, schedule: Q01DX010 (sc), vehicle: water) 1 of 3 on day 20; (dose: 400.0 mg/kg/injection, schedule: Q01DX010 (sc), vehicle: water) 0 of 3 on day 20.
Regarding `O=C(Nc1cccc(Cl)c1)ON1C(=O)C2C(C1=O)C1(Cl)C(Cl)C(Cl)C2(Cl)C1(Cl)Cl` (stereo unspecified), where the note is “dose: 300.0 mg/kg/injection, schedule: Q04DX004 (sc), vehicle: saline with Tween-80, evaluated on day 15”, the T/C is 125 % of control.
As for `Nc1nc2c(C(=O)N3CCCC3)nnn2c2ccccc12`, the survivor count is 3 of 6 on day 15 (dose: 150.0 mg/kg/injection, schedule: Q04DX004 (sc), vehicle: saline with Tween-80); 0 of 6 on day 15 (dose: 300.0 mg/kg/injection, schedule: Q04DX004 (sc), vehicle: saline with Tween-80); 0 of 6 on day 15 (dose: 600.0 mg/kg/injection, schedule: Q04DX004 (sc), vehicle: saline with Tween-80).
`COc1ccc(-c2cc(C(=O)Nc3cc(C(F)(F)F)cc(C(F)(F)F)c3)c3ccccc3n2)cc1`: for the setting “dose: 150.0 mg/kg/injection, schedule: Q04DX004 (ip), vehicle: DMSO, evaluated on day 15”, the T/C was 135 % of control. For the same compound, the survivor count (dose: 1200.0 mg/kg/injection, schedule: Q04DX004 (ip), vehicle: DMSO) is 1 of 6 on day 15.
For the compound `O=C(C#Cc1ccccc1)c1ccccc1`, the survivor count runs as follows: (dose: 300.0 mg/kg/injection, schedule: Q04DX004 (sc), vehicle: Klucel (hydroxypropylcellulose) (HPC)) 1 of 6 on day 15; (dose: 600.0 mg/kg/injection, schedule: Q04DX004 (sc), vehicle: Klucel (hydroxypropylcellulose) (HPC)) 2 of 6 on day 15; under setting [1], 0 of 6 on day 15; under setting [2], 0 of 6 on day 15.
For `Nc1n[n+](-c2ccccc2)no1`, the T/C (dose: 18.75 mg/kg/injection, schedule: Q04DX004 (sc), vehicle: water, evaluated on day 15) is 136 % of control. Besides, the survivor count (dose: 37.5 mg/kg/injection, schedule: Q04DX004 (sc), vehicle: water) is 2 of 5 on day 15; the survivor count (dose: 75.0 mg/kg/injection, schedule: Q04DX004 (sc), vehicle: water) was 2 of 6 on day 15; the survivor count (dose: 150.0 mg/kg/injection, schedule: Q04DX004 (sc), vehicle: water) was 0 of 6 on day 15.
With `COc1cc([C@@H]2c3cc4c(c(O)c3C[C@H]3COC(=O)[C@@H]32)OCO4)cc(OC)c1OC`, under “dose: 16.0 mg/kg/injection, schedule: Q01DX010 (sc), vehicle: saline”, the survivor count was 1 of 3 on day 11.
For `Nc1ccccc1N`, the survivor count (dose: 400.0 mg/kg/injection, schedule: Q01DX010 (sc), vehicle: Klucel (hydroxypropylcellulose) (HPC)) is recorded as 0 of 2 on day 11.
`COCCCNC1=C(C#N)C(=O)NC(c2cccc([N+](=O)[O-])c2)S1` (stereo unspecified): for the setting “dose: 400.0 mg/kg/injection, schedule: Q04DX004 (sc), vehicle: saline with Tween-80, evaluated on day 15”, the T/C was 137 % of control.
Turning to `CC1=C[S+](c2ccccc2)c2cccc3cc4ccccc4c1c23` (stereo unspecified), the survivor count (dose: 32.0 mg/kg/injection, schedule: Q04DX004 (sc), vehicle: saline with Tween-80) is given as 3 of 6 on day 15 and the survivor count (dose: 64.0 mg/kg/injection, schedule: Q04DX004 (sc), vehicle: saline with Tween-80) is 0 of 6 on day 15.
Turning to `CC1=NN(c2cccc(S(=O)(=O)O)c2)C(=O)C1N=Nc1cc(Cl)cc(S(=O)(=O)O)c1O.CC1=NN(c2cccc(S(=O)(=O)O)c2)C(=O)C1N=Nc1cc(Cl)cc(S(=O)(=O)O)c1O.[Cr]` (stereo unspecified), where the note is “dose: 1200.0 mg/kg/injection, schedule: Q04DX004 (sc), vehicle: saline”, the survivor count was 0 of 6 on day 15.
On to `COc1c(CNC(=O)CCl)cc2[nH]c(C)cc2c1CNC(=O)CCl`, for which the survivor count under setting [1] is 1 of 6 on day 15 and the survivor count under setting [2] is given as 3 of 6 on day 15.
`COC1=C(N)C(=O)c2nc(-c3nc(C(=O)O)c(C)c(-c4ccc(OC)c(OC)c4O)c3N)ccc2C1=O`: the survivor count is, setting by setting: (dose: 0.5 mg/kg/injection, schedule: Q01DX010 (sc), vehicle: saline) 1 of 3 on day 11; (dose: 1.0 mg/kg/injection, schedule: Q01DX010 (sc), vehicle: saline) 0 of 3 on day 11 and 2 of 6 on day 11; (dose: 2.0 mg/kg/injection, schedule: Q01DX010 (sc), vehicle: saline) 0 of 6 on day 11.
